From patent publication US20060024691A1, “Novel pathways in the etiology of cancer” (Buck Institute for Age Research, priority 2004, published 2006)
Read-outs that look alike come from different tables or passages of the source. At least one structure is not confirmed: it was looked up by name or label, or the drawing left a doubt.

Assays:
[1] = tested on: ERα Ser-167 (67 kD ERα and 52 kD ERα variant); type: cell-based, human; conditions: for block of K3-induced p-Ser-167 ERα formation: MCF7 cells, co-treatment with K3
Experimental: (§1) Human breast cancer cell lines MCF7 and T47D were obtained from the American Type Culture Collection (ATCC). MCF7 cells were maintained in Dulbecco's Modification of Eagle's Medium (Cellgro) supplemented with 10% fetal bovine serum (Cellgro), 1% penicillin/streptomycin (Cellgro) and 10 μg/ml insulin (Sigma). T47D cells were maintained in RPMI (Cellgro) supplemented with 10% fetal bovine serum, 1% penicillin/streptomycin and 10 μg/ml insulin. Treatment conditions for both cell lines involved plating ˜1×10^6 cells in normal media onto 10 cm dishes, attachment and growth for 24 hours followed by a change to estrogen-free culture conditions (phenol red-free DME H-16 supplemented with 10% charcoal stripped serum, 1% penicillin/streptomycin and 10 μg/ml insulin) for an additional 24 hours. Cells were then treated as indicated for 30 minutes before extract preparation. Indicated conditions involved 30 minute pretreatments.
(§2) Following aspiration of the media and one ice cold PBS wash, cells growing on 10 cm dishes were harvested using a cell scraper and 0.7 ml of ice cold cell lyses buffer ([…], 1.5 mM MgCl2, […] KCl, 1 mM DTT, […] NaFl, 5% glycerol, 0.45% NP40 (Igepal, Sigma) and mincomplete protease inhibitors (Roche)). […] For preparation of high-salt nuclear extracts (nucleoplasm), isolated nuclei were resuspended for 20 minutes in ice cold extraction buffer (0.4 M NaCl, 25 mM Tris pH 7.5, 1 mM DTT, 20% glycerol, 10 mM NaFl and min-complete protease inhibitors (Roche)) followed by a 4° C. centrifugation at 16,000×g for 15 minutes.
(§3) Equal amounts of protein from the various extracts were mixed with 2× SDS sample buffer (125 mM Tris pH6.8, 20% glycerol, 2% SDS, 0.28 M 2-mercaptoethanol and0.5% Bromphenol Blue), heated for 5 minutes at 90° C. and electrophoresed on NuPAGE 4-12% Bis-Tris gels (Invitrogen) using NuPAGE MOPS SDS running buffer (Invitrogen) and full range Rainbow recombinant protein molecular weight markers (Amersham Pharmacia). […] Membranes were then blocked for 30 minutes in blocking buffer (150 mM NaCl, 20 mM Tris pH 7.5, 0.3% Tween-20 and 4% Nonfat dry milk powerby weight).

[2] = tested on: ERα Ser-118 (67 kD ERα and 52 kD ERα variant); type: cell-based, human; conditions: MCF-7/T47D cells, charcoal-stripped media, 30 min, menadione 100 μM, estradiol 10 nM, other quinones at equitoxic doses
Experimental: as §1, §2, §3

## O=c1cc(N2CCOCC2)oc2c(-c3ccccc3)cccc12 [LY294002]
[1]
  block of K3-induced p-Ser-167 ERα formation: no affect

## Oc1c2ccccc2c2c3c(cccc13)N=N2 [SP600125]
[1]
  block of K3-induced p-Ser-167 ERα formation: no affect

## C[C@]12CC[C@@H]3c4ccc(O)cc4CC[C@H]3[C@@H]1CC[C@@H]2O [estradiol]
[1]; MCF7 nuclear extracts, 30 min
  Ser-167 phosphorylation of ERα induced by treatment: not detected
[2]
  Ser-118 phosphorylation of ER induced by treatment: produced Ser-118 phosphorylation
[2]; listed as E2
  Ser-118 phosphorylation of ER induced by treatment: contained 67 kD p-Ser-118 ERα
